Results as given in the supplement of paper PMC10849652.
The list shows a part of the results.

Chains of the proteins cited; added tags and fusions are not shown. Lines headed by an entry give the natural chain unless they say otherwise; changes in a name come on top.
UniProt P47756, whole entry, looked up: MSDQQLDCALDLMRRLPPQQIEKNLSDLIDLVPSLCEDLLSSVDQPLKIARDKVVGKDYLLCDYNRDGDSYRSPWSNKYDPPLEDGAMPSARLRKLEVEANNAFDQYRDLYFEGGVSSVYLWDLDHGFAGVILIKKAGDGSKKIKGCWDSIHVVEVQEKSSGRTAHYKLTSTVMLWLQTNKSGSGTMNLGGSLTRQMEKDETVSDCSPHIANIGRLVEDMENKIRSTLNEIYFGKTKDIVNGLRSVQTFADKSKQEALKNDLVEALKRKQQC
UniProt Q13895: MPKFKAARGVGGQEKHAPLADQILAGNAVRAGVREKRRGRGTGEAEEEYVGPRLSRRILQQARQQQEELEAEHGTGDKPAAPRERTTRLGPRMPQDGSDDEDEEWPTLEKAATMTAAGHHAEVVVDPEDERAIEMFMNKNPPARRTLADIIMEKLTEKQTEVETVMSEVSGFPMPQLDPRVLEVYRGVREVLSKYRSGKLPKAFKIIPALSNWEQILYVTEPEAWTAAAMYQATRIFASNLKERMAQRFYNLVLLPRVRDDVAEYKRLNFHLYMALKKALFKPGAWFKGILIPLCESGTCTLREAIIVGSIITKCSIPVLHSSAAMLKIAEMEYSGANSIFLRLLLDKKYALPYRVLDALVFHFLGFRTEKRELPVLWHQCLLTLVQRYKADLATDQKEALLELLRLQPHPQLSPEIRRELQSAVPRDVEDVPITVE
UniProt P41223: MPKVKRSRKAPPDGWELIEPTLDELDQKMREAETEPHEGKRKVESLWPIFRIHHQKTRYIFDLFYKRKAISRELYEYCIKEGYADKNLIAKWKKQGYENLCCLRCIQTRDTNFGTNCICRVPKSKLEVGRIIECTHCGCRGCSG
UniProt Q5SNV9: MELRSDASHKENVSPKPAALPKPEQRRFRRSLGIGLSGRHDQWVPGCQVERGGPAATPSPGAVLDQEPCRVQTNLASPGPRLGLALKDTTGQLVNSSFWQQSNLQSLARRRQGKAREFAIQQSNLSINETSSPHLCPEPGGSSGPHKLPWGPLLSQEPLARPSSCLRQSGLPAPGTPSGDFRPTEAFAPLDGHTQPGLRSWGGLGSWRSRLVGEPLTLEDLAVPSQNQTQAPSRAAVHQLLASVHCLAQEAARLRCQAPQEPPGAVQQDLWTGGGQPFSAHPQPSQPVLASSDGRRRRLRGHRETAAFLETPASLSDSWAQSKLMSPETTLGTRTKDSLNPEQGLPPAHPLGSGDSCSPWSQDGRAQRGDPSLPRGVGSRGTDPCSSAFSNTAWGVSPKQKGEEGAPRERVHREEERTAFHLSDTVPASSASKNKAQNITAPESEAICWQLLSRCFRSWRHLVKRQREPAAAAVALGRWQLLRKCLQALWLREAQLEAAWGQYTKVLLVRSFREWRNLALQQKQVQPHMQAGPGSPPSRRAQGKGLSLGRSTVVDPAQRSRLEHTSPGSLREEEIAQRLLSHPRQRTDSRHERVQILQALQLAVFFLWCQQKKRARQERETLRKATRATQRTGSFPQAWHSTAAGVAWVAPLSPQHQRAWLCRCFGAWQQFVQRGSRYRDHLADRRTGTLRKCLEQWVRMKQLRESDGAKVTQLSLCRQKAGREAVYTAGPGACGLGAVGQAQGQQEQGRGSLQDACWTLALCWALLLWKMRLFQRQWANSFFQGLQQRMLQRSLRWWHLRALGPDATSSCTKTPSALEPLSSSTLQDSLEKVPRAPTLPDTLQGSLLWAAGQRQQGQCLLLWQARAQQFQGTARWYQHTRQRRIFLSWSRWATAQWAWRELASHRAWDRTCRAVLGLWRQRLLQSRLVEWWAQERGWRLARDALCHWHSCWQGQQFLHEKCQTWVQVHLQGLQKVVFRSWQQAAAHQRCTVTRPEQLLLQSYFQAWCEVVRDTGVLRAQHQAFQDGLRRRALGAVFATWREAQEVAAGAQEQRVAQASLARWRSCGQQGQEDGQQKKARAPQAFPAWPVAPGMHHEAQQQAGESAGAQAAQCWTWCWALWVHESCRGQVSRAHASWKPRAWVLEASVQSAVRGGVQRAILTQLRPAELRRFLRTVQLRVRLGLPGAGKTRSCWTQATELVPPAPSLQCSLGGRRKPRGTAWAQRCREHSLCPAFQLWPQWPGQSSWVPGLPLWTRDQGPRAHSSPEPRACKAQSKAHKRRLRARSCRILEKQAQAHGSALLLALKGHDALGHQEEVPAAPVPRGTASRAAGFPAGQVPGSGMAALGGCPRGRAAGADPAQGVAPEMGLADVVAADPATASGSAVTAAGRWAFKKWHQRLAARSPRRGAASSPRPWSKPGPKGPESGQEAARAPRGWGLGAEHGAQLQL
UniProt O43709: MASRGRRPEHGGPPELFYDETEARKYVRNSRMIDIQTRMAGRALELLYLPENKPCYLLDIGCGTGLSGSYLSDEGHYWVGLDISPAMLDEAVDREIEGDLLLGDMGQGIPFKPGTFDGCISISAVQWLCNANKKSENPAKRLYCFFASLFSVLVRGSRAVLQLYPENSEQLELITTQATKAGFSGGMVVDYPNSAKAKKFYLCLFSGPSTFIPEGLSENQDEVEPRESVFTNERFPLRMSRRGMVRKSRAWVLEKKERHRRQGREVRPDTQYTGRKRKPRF
UniProt Q8WUR7: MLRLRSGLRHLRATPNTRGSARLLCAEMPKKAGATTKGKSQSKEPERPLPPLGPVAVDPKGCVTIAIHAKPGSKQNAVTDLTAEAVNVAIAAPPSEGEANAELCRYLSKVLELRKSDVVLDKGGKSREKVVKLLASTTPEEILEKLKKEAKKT
UniProt Q9HAS0: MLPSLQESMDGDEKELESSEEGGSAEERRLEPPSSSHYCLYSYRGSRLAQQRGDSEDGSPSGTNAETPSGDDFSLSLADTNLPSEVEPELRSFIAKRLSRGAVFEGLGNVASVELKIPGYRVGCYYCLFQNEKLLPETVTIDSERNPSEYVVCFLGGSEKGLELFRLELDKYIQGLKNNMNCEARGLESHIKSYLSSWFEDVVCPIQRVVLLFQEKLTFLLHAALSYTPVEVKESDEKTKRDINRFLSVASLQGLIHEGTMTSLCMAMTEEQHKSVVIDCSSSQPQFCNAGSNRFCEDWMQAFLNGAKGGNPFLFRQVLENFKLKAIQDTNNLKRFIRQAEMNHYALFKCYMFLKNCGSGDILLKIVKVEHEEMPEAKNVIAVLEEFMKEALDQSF
UniProt Q8N999, whole entry, looked up: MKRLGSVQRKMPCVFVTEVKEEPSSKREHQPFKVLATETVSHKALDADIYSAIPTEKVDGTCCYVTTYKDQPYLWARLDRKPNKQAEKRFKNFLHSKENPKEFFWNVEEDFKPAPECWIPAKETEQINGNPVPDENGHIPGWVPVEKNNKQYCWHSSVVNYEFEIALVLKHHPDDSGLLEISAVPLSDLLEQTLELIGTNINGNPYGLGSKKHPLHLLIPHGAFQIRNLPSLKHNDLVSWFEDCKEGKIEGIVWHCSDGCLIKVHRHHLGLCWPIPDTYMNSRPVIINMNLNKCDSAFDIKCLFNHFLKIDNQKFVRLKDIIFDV
UniProt Q5BKX5: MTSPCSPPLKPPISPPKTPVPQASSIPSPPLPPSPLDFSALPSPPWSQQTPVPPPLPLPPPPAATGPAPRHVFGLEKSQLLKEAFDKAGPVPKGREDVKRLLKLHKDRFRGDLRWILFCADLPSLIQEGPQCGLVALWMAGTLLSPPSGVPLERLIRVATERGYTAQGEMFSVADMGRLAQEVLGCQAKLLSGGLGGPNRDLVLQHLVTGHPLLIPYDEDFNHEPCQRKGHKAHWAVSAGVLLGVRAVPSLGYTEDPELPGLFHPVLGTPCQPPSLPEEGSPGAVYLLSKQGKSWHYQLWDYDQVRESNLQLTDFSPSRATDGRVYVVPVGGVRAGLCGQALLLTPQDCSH
UniProt O43852: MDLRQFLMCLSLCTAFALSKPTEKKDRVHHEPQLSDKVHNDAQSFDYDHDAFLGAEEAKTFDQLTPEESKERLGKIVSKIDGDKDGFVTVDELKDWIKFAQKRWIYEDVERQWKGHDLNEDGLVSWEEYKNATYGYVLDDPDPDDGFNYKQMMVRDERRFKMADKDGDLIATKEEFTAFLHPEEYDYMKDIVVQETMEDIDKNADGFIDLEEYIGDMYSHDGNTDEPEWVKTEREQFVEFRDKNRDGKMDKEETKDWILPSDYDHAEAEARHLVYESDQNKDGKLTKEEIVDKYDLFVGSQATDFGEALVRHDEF
UniProt Q9H9S4: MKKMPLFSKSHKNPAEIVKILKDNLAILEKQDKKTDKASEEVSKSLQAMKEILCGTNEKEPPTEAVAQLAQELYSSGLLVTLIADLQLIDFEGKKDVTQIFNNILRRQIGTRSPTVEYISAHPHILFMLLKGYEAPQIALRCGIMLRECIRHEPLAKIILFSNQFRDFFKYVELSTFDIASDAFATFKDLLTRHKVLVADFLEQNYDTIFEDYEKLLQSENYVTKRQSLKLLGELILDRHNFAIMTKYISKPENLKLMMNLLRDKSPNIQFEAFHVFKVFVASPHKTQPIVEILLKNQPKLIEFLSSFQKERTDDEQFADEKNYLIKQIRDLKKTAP
UniProt Q3KRA6: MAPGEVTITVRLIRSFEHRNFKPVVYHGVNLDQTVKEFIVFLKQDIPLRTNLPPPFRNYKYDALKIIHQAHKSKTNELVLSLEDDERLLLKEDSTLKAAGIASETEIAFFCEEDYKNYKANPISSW
UniProt Q07021: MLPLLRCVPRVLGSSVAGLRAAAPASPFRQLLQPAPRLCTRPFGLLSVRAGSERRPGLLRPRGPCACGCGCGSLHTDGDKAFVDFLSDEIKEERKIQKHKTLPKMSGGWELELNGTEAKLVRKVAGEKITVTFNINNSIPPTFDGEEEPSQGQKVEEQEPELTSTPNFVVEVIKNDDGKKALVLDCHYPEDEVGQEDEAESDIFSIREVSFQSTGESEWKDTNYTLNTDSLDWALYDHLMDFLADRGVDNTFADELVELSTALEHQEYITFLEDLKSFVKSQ
UniProt Q9Y6E2: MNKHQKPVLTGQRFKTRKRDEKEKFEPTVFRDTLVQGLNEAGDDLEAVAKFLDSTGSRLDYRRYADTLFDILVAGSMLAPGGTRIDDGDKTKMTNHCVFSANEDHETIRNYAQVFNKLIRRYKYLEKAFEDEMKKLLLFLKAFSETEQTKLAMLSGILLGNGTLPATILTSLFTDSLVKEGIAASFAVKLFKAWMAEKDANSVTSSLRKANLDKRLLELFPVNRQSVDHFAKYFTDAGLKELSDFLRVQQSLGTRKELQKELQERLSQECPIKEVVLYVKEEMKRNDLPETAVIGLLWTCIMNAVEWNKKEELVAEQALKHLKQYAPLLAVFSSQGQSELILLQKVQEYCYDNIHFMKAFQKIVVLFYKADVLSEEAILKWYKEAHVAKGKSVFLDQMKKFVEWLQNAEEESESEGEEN
UniProt O43684, whole entry, looked up: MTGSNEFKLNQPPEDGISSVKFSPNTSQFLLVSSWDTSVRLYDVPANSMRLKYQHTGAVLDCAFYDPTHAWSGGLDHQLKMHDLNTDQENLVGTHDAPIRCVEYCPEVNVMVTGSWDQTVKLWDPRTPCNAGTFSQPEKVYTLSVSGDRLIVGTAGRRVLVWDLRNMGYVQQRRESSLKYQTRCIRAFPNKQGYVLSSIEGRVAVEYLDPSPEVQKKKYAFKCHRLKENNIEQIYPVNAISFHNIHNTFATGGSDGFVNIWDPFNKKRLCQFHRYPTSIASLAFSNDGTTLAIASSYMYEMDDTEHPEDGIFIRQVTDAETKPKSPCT

Assays:
Assay in all cases: log2 fold change, soluble protein after heating vs DMSO (PISA); higher = thermal stabilisation; K562 lysate, 10 uM; active = over 0.2 and 3.5 SD of the protein, either way, in both replicates (recomputed)
ibrutinib = compound: C=CC(=O)N1CCC[C@@H](n2nc(-c3ccc(Oc4ccccc4)cc3)c3c(N)ncnc32)C1 [ibrutinib]
Method in brief: (§1)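 Thermal stability, expressed as log-two fold change relative to solvent controls, is given from duplicates. Crude K562 extract in PBS pH 7.4 with 1 mM MgCl2, at 1 mg/mL protein, was treated with 10 μM compound for 30 min and heated in aliquots for 3 min across 48°C-58°C. After pooling, adjustment to 0.5% NP-40 at 4°C and centrifugation at 21,000xg for 90 min, supernatant protein was measured by TMTpro 16plex LC-MS/MS with channel sums equalised.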

[1] = compound: CC(=O)c1cnc2ccc(-c3cc(Cl)c(O)c(Cl)c3)nc2c1N[C@H]1CC[C@H](CN(C)C)CC1
Method in brief: as §1

ralimetinib = compound: CC(C)(C)Cn1c(N)nc2ccc(-c3[nH]c(C(C)(C)C)nc3-c3ccc(F)cc3)nc21 [ralimetinib]
Method in brief: as §1

[2] = compound: CC(C)(O)CC(=O)NCCn1ccc2ncnc(Nc3ccc(Oc4cccc(C(F)(F)F)c4)c(Cl)c3)c21
Method in brief: as §1

[3] = compound: CC(C)C1=C2N=C(C=C(N2N=C1)NCC3=CC=CC=C3)NCCCCCCN
Method in brief: as §1

[4] = compound: CC1=C(C(CC(=O)N1)C2=CC=C(C=C2)C(F)(F)F)C(=O)NC3=C(C=C4C(=C3)C=NN4)F
Method in brief: as §1

[5] = compound: CC1=C(C2=C(C=C1)C(=O)C3=CC=CC=C3N2CCCN)C
Method in brief: as §1

[6] = compound: CC1=C(C=C(C=C1)NC(=O)C2=CC(=CC=C2)C(C)(C)C#N)NC3=CC4=C(C=C3)N=CN(C4=O)C
Method in brief: as §1

[7] = compound: CC1=C(C=C(C=C1)NC(=O)C2=CC(=CC=C2)N(C)C)NC(=O)C3=CC=C(C=C3)O
Method in brief: as §1

[8] = compound: CC1=CC=C(C=C1)SC2=C3C=C(SC3=CN=C2)C(=O)N
Method in brief: as §1

vemurafenib = compound: CCCS(=O)(=O)Nc1ccc(F)c(C(=O)c2c[nH]c3ncc(-c4ccc(Cl)cc4)cc23)c1F [vemurafenib]
Method in brief: as §1

[9] = compound: CCCS(=O)(=O)Nc1ccc(F)c(C(=O)c2c[nH]c3ncc(Cl)cc23)c1F
Method in brief: as §1

barasertib = compound: CCN(CCCOc1ccc2c(Nc3cc(CC(=O)Nc4cccc(F)c4)[nH]n3)ncnc2c1)CCOP(=O)(O)O [barasertib]
Method in brief: as §1

[10] = compound: CC[C@@H]1C(=O)N(C)c2cnc(Nc3ccc(C(=O)NC4CCN(C)CC4)cc3OC)nc2N1C1CCCC1
Method in brief: as §1

volasertib = compound: CC[C@@H]1C(=O)N(C)c2cnc(Nc3ccc(C(=O)N[C@H]4CC[C@H](N5CCN(CC6CC6)CC5)CC4)cc3OC)nc2N1C(C)C [volasertib]
Method in brief: as §1

[11] = compound: CCn1c(C(=O)N(C2CC2)C2CC2)cc2c3c(ncn3C)c(Nc3cc(C)n(C)n3)nc21
Method in brief: as §1

[12] = compound: CCn1cc(-c2ccnc3[nH]c(-c4cccc(CN(C)C)c4)cc23)c(-c2ccc(NC(=O)N(C)C)cc2)n1
Method in brief: as §1

[13] = compound: CN1CCC(CNc2ccc3ncc(-c4cccc(OC(F)(F)F)c4)n3n2)CC1
Method in brief: as §1

saracatinib = compound: CN1CCN(CCOc2cc(OC3CCOCC3)c3c(Nc4c(Cl)ccc5c4OCO5)ncnc3c2)CC1 [saracatinib]
Method in brief: as §1

sotrastaurin = compound: CN1CCN(c2nc(C3=C(c4c[nH]c5ccccc45)C(=O)NC3=O)c3ccccc3n2)CC1 [sotrastaurin]
Method in brief: as §1

Row | Target | log2 fold change (ibrutinib) | log2 fold change [1] | log2 fold change (ralimetinib) | log2 fold change [2] | log2 fold change [3] | log2 fold change [4] | log2 fold change [5] | log2 fold change [6] | log2 fold change [7] | log2 fold change [8] | log2 fold change (vemurafenib) | log2 fold change [9] | log2 fold change (barasertib) | log2 fold change [10] | log2 fold change (volasertib) | log2 fold change [11] | log2 fold change [12] | log2 fold change [13] | log2 fold change (saracatinib) | log2 fold change (sotrastaurin)
1 | CAPZB (UniProt P47756) | inactive: 0.027 | inactive: 0.011 | inactive: -0.017 | inactive: 0.006 | inactive: -0.006 | inactive: 0 | inactive: -0.01 | inactive: -0.009 | inactive: -0.026 | inactive: -0.002 | inactive: 0.004 | inactive: 0.014 | inactive: 0.001 | inactive: 0.053 | inactive: 0.015 | inactive: -0.018 | inactive: 0.197 | inactive: -0.056 | inactive: -0.015 | inactive: 0.001
2 | BYSL (UniProt Q13895) | inactive: -0.03 | inactive: 0.025 | inactive: 0.023 | inactive: -0.022 | inactive: -0.007 | inactive: -0.014 | inactive: -0.026 | inactive: -0.033 | inactive: 0.017 | inactive: 0.013 | inactive: 0.039 | inactive: 0.013 | inactive: 0.047 | inactive: -0.073 | inactive: -0.026 | inactive: 0.024 | inactive: -0.007 | inactive: -0.064 | inactive: 0 | inactive: 0.019
3 | BUD31 (UniProt P41223) | inactive: 0.06 | inactive: -0.008 | inactive: 0.03 | inactive: -0.012 | inactive: -0.004 | inactive: 0.006 | inactive: 0 | inactive: 0.1 | inactive: 0.004 | inactive: 0.035 | inactive: 0.022 | inactive: 0.009 | inactive: -0.051 | inactive: -0.03 | inactive: 0.014 | inactive: -0.011 | inactive: 0.185 | inactive: -0.076 | inactive: 0.011 | inactive: -0.055
4 | C1orf167 isoform 2 (UniProt Q5SNV9) | inactive: -0.022 | inactive: 0.001 | inactive: -0.012 | inactive: -0.076 | inactive: 0.144 | inactive: -0.107 | inactive: 0.08 | inactive: 0.034 | inactive: 0.158 | inactive: -0.045 | inactive: 0.048 | inactive: -0.084 | inactive: 0.088 |  | inactive: 0.021 | inactive: -0.12 | inactive: -0.259 | inactive: 0.066 | inactive: 0.048 | inactive: 0.19
5 | BUD23 isoform 3 (UniProt O43709) | inactive: -0.017 | inactive: -0.007 | inactive: 0.089 | inactive: -0.002 | inactive: -0.064 | inactive: -0.004 | inactive: 0.119 | inactive: -0.056 | inactive: -0.023 | inactive: -0.001 | inactive: 0.01 | inactive: 0.017 | inactive: 0.038 | inactive: -0.006 | inactive: -0.029 | inactive: -0.104 | active: -0.341 | inactive: 0.193 | inactive: 0.019 | inactive: 0.017
6 | C15orf40 (UniProt Q8WUR7) | inactive: 0.058 | inactive: 0.037 | inactive: 0.036 | inactive: -0.035 | inactive: 0.031 | inactive: 0 | inactive: -0.022 | inactive: 0.041 | inactive: -0.054 | inactive: -0.048 | inactive: 0.005 | inactive: -0.043 | inactive: 0.001 | inactive: 0.078 | inactive: -0.054 | inactive: -0.011 | inactive: -0.038 | inactive: 0.047 | inactive: 0.003 | inactive: -0.039
7 | C17orf75 (UniProt Q9HAS0) | inactive: 0.019 | inactive: -0.018 | inactive: 0.01 | inactive: 0.002 | inactive: 0.009 | inactive: -0.013 | inactive: 0.003 | inactive: -0.065 | inactive: 0.046 | inactive: 0.02 | inactive: 0.03 | inactive: 0.049 | inactive: 0.051 | inactive: -0.02 | inactive: -0.039 | inactive: 0.048 | inactive: -0.022 | inactive: 0.099 | inactive: 0.01 | inactive: -0.008
8 | C12orf29 (UniProt Q8N999) | inactive: -0.027 | inactive: 0.052 | inactive: -0.021 | inactive: 0.003 | inactive: -0.001 | inactive: -0.04 | inactive: 0.005 | inactive: 0.018 | inactive: 0.032 | inactive: 0.006 | inactive: 0.089 | inactive: -0.027 | inactive: -0.026 | inactive: -0.026 | inactive: -0.098 | inactive: -0.009 | inactive: -0.027 | inactive: 0.022 | inactive: 0.016 | inactive: 0.024
9 | C19orf54 (UniProt Q5BKX5) | inactive: 0.041 | inactive: 0.003 | inactive: -0.018 | inactive: -0.055 | inactive: 0.028 | inactive: 0.012 | inactive: 0.06 | inactive: -0.041 | inactive: 0.013 | inactive: 0.063 | inactive: 0.08 | inactive: -0.028 | inactive: 0.002 | inactive: -0.043 | inactive: -0.058 | inactive: -0.06 | inactive: 0.013 | inactive: 0.003 | inactive: -0.027 | inactive: -0.027
10 | CALU isoform 4 (UniProt O43852) | inactive: 0.047 | inactive: 0.003 | inactive: -0.04 | inactive: 0.018 | inactive: -0.039 | inactive: -0.048 | inactive: 0.032 | inactive: 0.032 | inactive: -0.038 | inactive: -0.003 | inactive: 0.025 | inactive: -0.057 | inactive: -0.01 | inactive: -0.063 | inactive: -0.004 | inactive: -0.041 | inactive: -0.008 | inactive: 0.061 | inactive: -0.01 | inactive: -0.027
11 | CAB39L (UniProt Q9H9S4) | inactive: 0.019 | inactive: -0.023 | inactive: -0.015 | inactive: -0.079 | inactive: -0.053 | inactive: -0.023 | inactive: -0.158 | inactive: 0.114 | inactive: 0.033 | inactive: -0.032 | inactive: -0.096 | inactive: 0.049 | inactive: 0.029 |  | inactive: -0.028 | inactive: -0.004 | inactive: -0.047 | inactive: 0.033 | inactive: 0.015 | inactive: -0.004
12 | C2orf76 (UniProt Q3KRA6) | inactive: 0.015 | inactive: -0.019 | inactive: 0.108 | inactive: -0.017 | inactive: -0.026 | inactive: 0.061 | inactive: -0.014 | inactive: 0.019 | inactive: -0.008 | inactive: -0.013 |  | inactive: 0.049 | inactive: 0.029 | inactive: 0.096 | inactive: -0.005 | inactive: -0.01 | inactive: -0.005 | inactive: -0.039 | inactive: -0.023 | inactive: 0.037
13 | C1QBP (UniProt Q07021) | inactive: -0.012 | inactive: 0.016 | inactive: -0.04 | inactive: -0.006 | inactive: -0.005 | inactive: 0.004 | inactive: 0.012 | inactive: -0.022 | inactive: 0.01 | inactive: -0.01 | inactive: 0.005 | inactive: -0.001 | inactive: -0.015 | inactive: 0.034 | inactive: 0.023 | inactive: -0.056 | inactive: 0.004 | inactive: 0.002 | inactive: -0.007 | inactive: 0.003
14 | BZW2 (UniProt Q9Y6E2) | inactive: -0.013 | inactive: 0.014 | inactive: 0.012 | inactive: -0.012 | inactive: -0.023 | inactive: -0.004 | inactive: 0.009 | inactive: -0.019 | inactive: -0.009 | inactive: 0.005 | inactive: -0.005 | inactive: -0.009 | inactive: 0.026 | inactive: -0.036 | inactive: -0.012 | inactive: 0.021 | inactive: 0.018 | inactive: -0.044 | inactive: 0.015 | inactive: 0.012
15 | BUB3 (UniProt O43684) | inactive: 0.001 | inactive: -0.006 | inactive: 0.012 | inactive: 0.015 | inactive: 0.008 | inactive: -0.027 | inactive: -0.017 | inactive: -0.006 | inactive: -0.023 | inactive: 0.022 | inactive: 0.03 | inactive: -0.013 | inactive: -0.03 | inactive: -0.043 | inactive: 0.026 | inactive: -0.016 | inactive: -0.015 | inactive: 0.055 | inactive: 0.023 | inactive: 0.01
16 | CA2 (UniProt P00918) | inactive: 0.021 | inactive: -0.028 | inactive: -0.033 | inactive: 0.08 | inactive: 0.034 | inactive: 0 | inactive: -0.242 | inactive: -0.006 | inactive: -0.022 | inactive: 0.001 | inactive: 0.075 | inactive: 0.036 | inactive: -0.019 | inactive: 0.09 | inactive: 0.058 | inactive: -0.024 |  |  | inactive: -0.046 | inactive: -0.007

An excerpt of these results, as a markdown table.

| Row | Target | log2 fold change (ibrutinib) | log2 fold change [1] | log2 fold change (ralimetinib) | log2 fold change [2] | log2 fold change [3] | log2 fold change [4] | log2 fold change [5] | log2 fold change [6] | log2 fold change [7] | log2 fold change [8] | log2 fold change (vemurafenib) | log2 fold change [9] | log2 fold change (barasertib) | log2 fold change [10] | log2 fold change (volasertib) | log2 fold change [11] | log2 fold change [12] | log2 fold change [13] | log2 fold change (saracatinib) | log2 fold change (sotrastaurin) |
| --- | --- | --- | --- | --- | --- | --- | --- | --- | --- | --- | --- | --- | --- | --- | --- | --- | --- | --- | --- | --- | --- |
| 12 | C2orf76 (UniProt Q3KRA6) | inactive: 0.015 | inactive: -0.019 | inactive: 0.108 | inactive: -0.017 | inactive: -0.026 | inactive: 0.061 | inactive: -0.014 | inactive: 0.019 | inactive: -0.008 | inactive: -0.013 |  | inactive: 0.049 | inactive: 0.029 | inactive: 0.096 | inactive: -0.005 | inactive: -0.01 | inactive: -0.005 | inactive: -0.039 | inactive: -0.023 | inactive: 0.037 |
| 13 | C1QBP (UniProt Q07021) | inactive: -0.012 | inactive: 0.016 | inactive: -0.04 | inactive: -0.006 | inactive: -0.005 | inactive: 0.004 | inactive: 0.012 | inactive: -0.022 | inactive: 0.01 | inactive: -0.01 | inactive: 0.005 | inactive: -0.001 | inactive: -0.015 | inactive: 0.034 | inactive: 0.023 | inactive: -0.056 | inactive: 0.004 | inactive: 0.002 | inactive: -0.007 | inactive: 0.003 |
